No constants are given. Whether binding was seen depends on the method and setting. In cells and extracts the contact can be indirect. Here binding means that the protein was enriched with, or labelled near, the bait; the list need not be complete. Where a sequence is shown, tags or fusion partners need not be part of it.

Amino acid sequences for entries named in this document (tags omitted).
UniProt Q91WK0: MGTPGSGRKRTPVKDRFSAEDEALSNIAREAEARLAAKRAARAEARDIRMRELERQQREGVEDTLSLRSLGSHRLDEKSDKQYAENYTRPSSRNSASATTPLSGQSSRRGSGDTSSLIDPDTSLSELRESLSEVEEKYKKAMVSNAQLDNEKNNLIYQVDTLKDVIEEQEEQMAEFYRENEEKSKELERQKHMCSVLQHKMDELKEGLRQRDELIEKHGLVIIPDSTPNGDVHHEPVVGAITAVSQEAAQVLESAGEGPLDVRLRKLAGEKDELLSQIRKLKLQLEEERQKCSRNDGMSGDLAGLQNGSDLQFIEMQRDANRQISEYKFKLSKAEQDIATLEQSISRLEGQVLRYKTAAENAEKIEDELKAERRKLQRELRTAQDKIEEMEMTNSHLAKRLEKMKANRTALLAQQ

This passage reports binding results from article PMC10432976.

In assay [1] the target is T1, Flag-TRB3 (expressed in Min6 cells) (UniProt Q8K4K2).
T1 sequence: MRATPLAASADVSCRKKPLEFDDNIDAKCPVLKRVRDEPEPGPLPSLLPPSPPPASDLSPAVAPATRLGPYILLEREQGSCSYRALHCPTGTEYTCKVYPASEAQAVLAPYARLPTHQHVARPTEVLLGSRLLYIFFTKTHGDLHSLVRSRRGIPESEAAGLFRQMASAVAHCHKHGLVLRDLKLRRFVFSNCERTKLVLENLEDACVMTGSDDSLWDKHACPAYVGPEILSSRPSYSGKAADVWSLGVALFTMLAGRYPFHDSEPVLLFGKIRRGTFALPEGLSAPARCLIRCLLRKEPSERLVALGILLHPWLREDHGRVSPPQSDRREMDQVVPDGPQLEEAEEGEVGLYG
Description: affinity purification with mass spectrometry; Flag-TRB3 (adenovirus) or HA-TRB3 (lentivirus) in Min6 pseudoislets; anti-Flag or anti-HA agarose 4 h; NEHN buffer (150 mM NaCl, 0.5 mM EDTA, 20 mM Hepes pH 7.8, 0.5% NP-40); GFP adenovirus or RFP lentivirus as control; LC-MS/MS of tryptic digests.

For the next assay, the target named is T2, Myc-APEX2-TRB3 (UniProt Q8K4K2).
T2 sequence: T1 sequence
Description: proximity labelling; APEX2-TRB3 in Min6 cells; biotin-phenol (2 mM biotin-tyramide) 2 h, 0.5 mM H2O2 for 1 min; streptavidin-agarose pull-down, blot for Fli1; without or with IL1β for 30 min.

Consider “endogenous LRRFIP2 (leucine-rich repeat Flightless interacting protein) of Min6 cells (from UniProt Q91WK0 1-415)”, for which the binding entry in assay [1] is recorded as “binds”.

B1: endogenous Flightless homolog 1 (Fli1) of Min6 cells (protein, UniProt Q9JJ28 1-1271)
chain: MEATGVLPFVRGVDLSGNDFKGGYFPENVKAMTSLRWLKLNRTGLCYLPEELAALQKLEHLSVSHNHLTTLHGELSSLPSLRAIVARANSLKNSGVPDDIFKLDDLSVLDLSHNQLTECPRELENAKNMLVLNLSHNGIDSIPNQLFINLTDLLYLDLSENRLESLPPQMRRLVHLQTLVLNGNPLLHAQLRQLPAMMALQTLHLRNTQRTQSNLPTSLEGLSNLSDVDLSCNDLTRVPECLYTLPSLRRLNLSSNQIAELSLCIDQWVHLETLNLSRNQLTSLPSAICKLTKLKKLYLNSNKLDFDGLPSGIGKLTSLEEFMAANNNLELIPESLCRCPKLKKLVLNKNRLVTLPEAIHFLTEIQVLDVRENPSLVMPPKPADRTAEWYNIDFSLQNQLRLAGASPATVAAAAAVGSGSKDPLARKMRLRRRKDSAQDVQAKQVLKGMSDVAQEKNKNQEESIDARAPGGKVRRWDQGLEKPRLDYSEFFTEDVGQLPGLTIWQIENFVPVLVEEAFHGKFYEADCYIVLKTFLDDSGSLNWEIYYWIGGEATLDKKACSAIHAVNLRNYLGAECRTVREEMGDESEEFLQVFDNDISYIEGGTASGFYTVEDTHYVTRMYRVYGKKNIKLEPVPLKGSSLDPRFVFLLDQGLDIYVWRGAQATLSNTTKARLFAEKINKNERKGKAEITLLVQGQEPPGFWDVLGGEPSEIKNHVPDDFWPPQPKLYKVGLGLGYLELPQINYKLSVEHKKRPKVELMPGMRLLQSLLDTRCVYILDCWSDVFIWLGRKSPRLVRAAALKLGQELCGMLHRPRHTVVSRSLEGTEAQVFKAKFKNWDDVLTVDYTRNAEAVLQGQGLSGKVKRDTEKTDQMKADLTALFLPRQPPMPLAEAEQLMEEWNEDLDGMEGFVLEGRKFTRLPEEEFGHFYTQDCYVFLCRYWVPVEYEEEEKTEDKEGKASAEAREGEEAAAEAEEKQPEEDFQCIVYFWQGREASNMGWLTFTFSLQKKFESLFPGKLEVVRMTQQQENPKFLSHFKRKFIIHRGKRKVTQGTLQPTLYQIRTNGSALCTRCIQINTDSSLLNSEFCFILKVPFESEDNQGIVYAWVGRASDPDEAKLAEDILNTMFDASYSKQVINEGEEPENFFWVGIGAQKPYDDDAEYMKHTRLFRCSNEKGYFAVTEKCSDFCQDDLADDDIMLLDNGQEVYMWVGTQTSQVEIKLSLKACQVYIQHTRSKEHERPRRLRLVRKGNEQRAFTRCFHAWSTFRQAPA
For B1, the binding entry (in assay [1]; with Myc-APEX2-TRB3) was “binds” throughout.
